# Test results: article PMC5996148
# This is one part of the list. For some assays here: Construct or isoform of the protein are uncertain.
# Experiments:
# Test in all cases: protein microarray (ProtoArray v5.0), streptavidin-Alexa Fluor 647
# Conditions in all cases: 3'-biotin; 20 mM Tris (pH 7.5), 5 mM MgCl2, 100 mM KCl, 0.1% Tween-20, A/T-rich and random oligonucleotide blockers; temperature not stated; high values mean tight binding
# KRT33B (human) = test system: KRT33B (human)
# KRT8 (human) = test system: KRT8 (human)
# Kallikrein-1 (human) = test system: Kallikrein-1 (human)
# [1] = test system: Kelch-like ECH-associated protein 1 (human)
# [2] = test system: Keratinocyte growth factor (human)
# [3] = test system: Kinesin light chain 1 (human)
# L-asparaginase (human) = test system: L-asparaginase (human)
# LACTB2 (human) = test system: LACTB2 (human)
# LAIR2 (human) = test system: LAIR2 (human)
# LARP1 = LARP1 (UniProt Q6PKG0)
# LARP7 = target: T1, LARP7 (UniProt Q4G0J3)
# T1 sequence: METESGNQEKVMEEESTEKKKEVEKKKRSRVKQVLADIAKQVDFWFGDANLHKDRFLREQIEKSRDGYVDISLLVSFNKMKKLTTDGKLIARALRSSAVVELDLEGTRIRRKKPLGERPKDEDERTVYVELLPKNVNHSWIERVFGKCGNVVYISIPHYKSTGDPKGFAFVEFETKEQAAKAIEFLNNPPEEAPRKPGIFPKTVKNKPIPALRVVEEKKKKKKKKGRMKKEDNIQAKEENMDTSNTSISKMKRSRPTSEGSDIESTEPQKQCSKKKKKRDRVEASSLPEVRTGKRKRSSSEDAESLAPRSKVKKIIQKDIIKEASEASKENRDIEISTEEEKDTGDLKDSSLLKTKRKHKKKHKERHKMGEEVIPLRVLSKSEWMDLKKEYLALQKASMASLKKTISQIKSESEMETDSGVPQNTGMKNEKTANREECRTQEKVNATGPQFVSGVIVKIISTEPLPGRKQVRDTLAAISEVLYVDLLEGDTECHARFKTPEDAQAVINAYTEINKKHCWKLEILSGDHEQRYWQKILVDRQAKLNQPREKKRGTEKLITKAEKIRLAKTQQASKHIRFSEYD
# LAS1L (human) = test system: LAS1L (human)
# LCN1 (human) = test system: LCN1 (human)
# LCP1 (human) = test system: LCP1 (human)
# LDB2 (human) = test system: LDB2 (human)
# LETM2 (human) = test system: LETM2 (human)
# LGALS1 (human) = test system: LGALS1 (human)
# LGALS3 (human) = test system: LGALS3 (human)
# LILRB1 (human) = test system: LILRB1 (human)
# LIMD1 (human) = test system: LIMD1 (human)
sequence,measurement,setting,value
GGTGACAGGGGTATGGGGAGGGG [G4-2 biotinylated (Ct1)],binding signal,KRT33B (human),-0.38 z-score
same,binding signal,KRT8 (human),-0.384 z-score
same,binding signal,Kallikrein-1 (human),-0.365 z-score
same,binding signal,[1],-0.388 z-score
same,binding signal,[2],-0.39 z-score
same,binding signal,[3],-0.389 z-score
same,binding signal,L-asparaginase (human),-0.373 z-score
same,binding signal,LACTB2 (human),-0.392 z-score
same,binding signal,LAIR2 (human),-0.379 z-score
same,binding signal,LARP1,5.37 z-score
same,binding signal,LARP7,4.49 z-score
same,binding signal,LAS1L (human),-0.369 z-score
same,binding signal,LCN1 (human),-0.394 z-score
same,binding signal,LCP1 (human),-0.379 z-score
same,binding signal,LDB2 (human),-0.411 z-score
same,binding signal,LETM2 (human),-0.388 z-score
same,binding signal,LGALS1 (human),-0.372 z-score
same,binding signal,LGALS3 (human),-0.384 z-score
same,binding signal,LILRB1 (human),-0.378 z-score
same,binding signal,LIMD1 (human),-0.396 z-score

# Taken from the entries so far for reference:
sequence,measurement,setting,value
GGTGACAGGGGTATGGGGAGGGG [G4-2 biotinylated (Ct1)],binding signal,LETM2 (human),-0.388 z-score
same,binding signal,LGALS1 (human),-0.372 z-score
